Measurements as given in publication doi:10.1101/2025.11.15.688632.
Construct, isoform or probe ends are uncertain for at least one entry. For some assays here: No signal at the amounts used counts as a negative.

Key:
[1] = test system: AlexaFluor488-CREBΔLZ; test: flow-induced dispersion analysis; conditions: mM DNA, Rh change explained by viscosity
[2] = test system: bZIP; test: stopped-flow fluorescence
[3] = test system: CREB (pseudo wild-type); test: stopped-flow fluorescence
[4] = test system: CREBΔQ1; test: stopped-flow fluorescence; conditions: kon 1.66 ± 0.06 nM-1 s-1
[5] = test system: CREBΔQ2; test: stopped-flow fluorescence; conditions: kon 1.36 ± 0.07 nM-1 s-1
[6] = test system: bZIP-FD (covalent forced dimer); test: stopped-flow fluorescence; conditions: kon 2.3 ± 0.08 nM-1 s-1 (main text 2.45 ± 0.08)
[7] = test system: CREBΔKID; test: stopped-flow fluorescence; conditions: kon 1.5 ± 0.1 nM-1 s-1
[8] = test system: CREB-GS-KID; test: stopped-flow fluorescence; conditions: kon 1.46 ± 0.07 nM-1 s-1

## CCTGACGTCATCGG (double strand) [CRElin (unlabelled)]
[1]
  binding result: no binding

## CCTGACGTCATCGG (double strand) [CRElin]
[2]; kon similar to CREh
  binding result: binds
[3]; kon similar to CREh
  binding result: binds

## CCTGACGTCAGCCCCCTGACGTCAGG [CREh]
[2]; kon 2.3 ± 0.3 nM-1 s-1
  binding result: binds
[4]
  binding result: binds
[5]
  binding result: binds
[6]
  binding result: binds
[7]
  binding result: binds
[3]; kon 1.2 ± 0.1 nM-1 s-1
  binding result: binds
[8]
  binding result: binds

## GGCTAAAGCATTCT (double strand) [nCRE]
[1]
  binding result: no binding
